The assay concerns the target CsgA from E. coli (residues 21-151), without its signal sequence (E. coli), P28307. The assay is described as follows: SPR; Biacore 2000; freshly desalted CsgA and FapC immobilised on a CM5 chip by amine coupling; running buffer 10 mM HEPES pH 7.4, 150 mM NaCl, 3 mM EDTA, 0.05% BSA; chaperones injected in serial dilutions (DNAJB6, Bri and CsgC 10-2000 nM; S100A9, TTR and MTTR 5-70 μM) at 20 μl/min; 1:1 binding …; both purified. The settings on record: remark: other sources report otherwise. In general terms: Surface plasmon resonance follows binding to a sensor surface in real time, without labels.

The source of these data is paper PMC8729806.

These are yes or no findings as the source states them, for the method shown. Some binding calls cover weakened binding; strength is not graded here.

B1: CsgC, P52107 9-110 (protein)
chain: ALSSQITFNTTQQGDVYTIIPEVTLTQSCLCRVQILSLREGSSGQSQTKQEKTLSLPANQPIALTKLSLNISPDDRVKIVVTVSDGQSLHLSQQWPPSSEKS
modifications: here or on the partner: Alexa Fluor 546 label (peptide array only)
As for B1, the binding result was “binds”.
